Experimental findings from article doi:10.1101/2022.03.08.483537 are described below.

Chains of the proteins cited; added tags and fusions are not shown.
UniProt Q9WTL8: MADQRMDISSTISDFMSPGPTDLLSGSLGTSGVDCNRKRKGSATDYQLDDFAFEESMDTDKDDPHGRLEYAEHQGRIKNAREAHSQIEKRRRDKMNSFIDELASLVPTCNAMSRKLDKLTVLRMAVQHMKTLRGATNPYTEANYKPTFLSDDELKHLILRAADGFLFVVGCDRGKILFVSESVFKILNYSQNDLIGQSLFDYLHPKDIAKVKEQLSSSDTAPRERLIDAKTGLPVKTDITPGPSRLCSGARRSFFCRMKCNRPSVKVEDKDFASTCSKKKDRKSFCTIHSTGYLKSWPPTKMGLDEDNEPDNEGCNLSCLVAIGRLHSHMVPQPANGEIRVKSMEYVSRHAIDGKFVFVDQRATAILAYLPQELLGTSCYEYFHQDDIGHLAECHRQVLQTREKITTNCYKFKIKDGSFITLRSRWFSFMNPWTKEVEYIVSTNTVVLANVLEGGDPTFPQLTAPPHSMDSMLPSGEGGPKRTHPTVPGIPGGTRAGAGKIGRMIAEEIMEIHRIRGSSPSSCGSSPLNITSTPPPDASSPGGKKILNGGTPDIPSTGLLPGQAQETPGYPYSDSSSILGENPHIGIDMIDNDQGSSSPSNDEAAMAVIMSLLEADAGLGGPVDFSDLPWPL

This assay concerns the target BMAL1 (mouse (endogenous in mIEC)) (UniProt Q9WTL8). As to the kind of experiment: co-IP.

These are yes or no findings as the source states them, for the method shown. In cells and extracts the contact can be indirect. Some entries that bind do so weakly or less than the wild type.

B1: CLOCK (protein, UniProt O08785 1-855)
chain: MVFTVSCSKMSSIVDRDDSSIFDGLVEEDDKDKAKRVSRNKSEKKRRDQFNVLIKELGSMLPGNARKMDKSTVLQKSIDFLRKHKETTAQSDASEIRQDWKPTFLSNEEFTQLMLEALDGFFLAIMTDGSIIYVSESVTSLLEHLPSDLVDQSIFNFIPEGEHSEVYKILSTHLLESDSLTPEYLKSKNQLEFCCHMLRGTIDPKEPSTYEYVRFIGNFKSLTSVSTSTHNGFEGTIQRTHRPSYEDRVCFVATVRLATPQFIKEMCTVEEPNEEFTSRHSLEWKFLFLDHRAPPIIGYLPFEVLGTSGYDYYHVDDLENLAKCHEHLMQYGKGKSCYYRFLTKGQQWIWLQTHYYITYHQWNSRPEFIVCTHTVVSYAEVRAERRRELGIEESLPETAADKSQDSGSDNRINTVSLKEALERFDHSPTPSASSRSSRKSSHTAVSDPSSTPTKIPTDTSTPPRQHLPAHEKMTQRRSSFSSQSINSQSVGPSLTQPAMSQAANLPIPQGMSQFQFSAQLGAMQHLKDQLEQRTRMIEANIHRQQEELRKIQEQLQMVHGQGLQMFLQQSNPGLNFGSVQLSSGNSNIQQLTPVNMQGQVVPANQVQSGHISTGQHMIQQQTLQSTSTQQSQQSVMSGHSQQTSLPSQTPSTLTAPLYNTMVISQPAAGSMVQIPSSMPQNSTQSATVTTFTQDRQIRFSQGQQLVTKLVTAPVACGAVMVPSTMLMGQVVTAYPTFATQQQQAQTLSVTQQQQQQQQQPPQQQQQQQQSSQEQQLPSVQQPAQAQLGQPPQQFLQTSRLLHGNPSTQLILSAAFPLQQSTFPPSHHQQHQPQQQQQLPRHRTDSLTDPSKVQPQ
Turning to B1, the binding result is “binds”.
